The test deals with T1, Lsm4-cMyc (S. pombe) (UniProt O14352).
T1 sequence: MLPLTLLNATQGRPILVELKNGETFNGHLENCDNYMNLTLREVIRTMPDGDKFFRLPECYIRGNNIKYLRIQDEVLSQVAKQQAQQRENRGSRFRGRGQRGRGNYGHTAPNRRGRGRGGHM
The experiment in a line: co-IP; S. pombe cell-free extract in TMG(300), antibody-coated protein G Dynabeads (anti-FLAG, anti-V5 or anti-c-Myc), 4 h at 4 °C, western blot; beads also treated with RNase A or Benzonase (15 min, 37 °C); Pof8-Thc1 also in bmc1Δ background. A general note: In western blotting, separated proteins are transferred to a membrane and probed.

No constants are given. Whether binding was seen depends on the method and setting. Binding seen in cells or lysates may run through a third protein. Some results given as binding are weak or reduced against the parent protein; the word gives no strength. Tags and fused reporters may be left off the sequences shown.

B1: Bmc1-Twinstrep (protein, UniProt Q9Y7L2 1-268)
chain: MSNFQHGNYHSYYSMRGGTSIIDPRLKCLPDSLFYEASVLDIGCNNGTVSAQIASIFGASFVLGLDIDHVLIQKARKHLEFVSSRIGPVRNPGSIVEDQFNYYPISSIKKFSRIPVQLQPPLNKQNFPHNIEFETADFLRWESKRKFKIILALSVSKWVHLNNHDEGIIKFFGKISSLLETNGVLILEPQGWDSYLKAAKKISVFNQTPENLKIQPDAFEHLLNQAGLVLEYSIEPQVNNSEYKNFAKRTMYIYKKKGIGIIKLLTST
Take B1: the binding entry is listed as “binds”.

The values above are taken from paper PMC8881624.
